In paper PMC6802383:
Results are given in words; binding and its absence hold for the method and conditions named. Binding seen in cells or lysates may run through a third protein. Some results given as binding are weak or reduced against the parent protein; the word gives no strength. Tags and fused reporters may be left off the sequences shown.

T1: neuronal glycine transporter GlyT2 (rat) (UniProt P58295)
T1 sequence: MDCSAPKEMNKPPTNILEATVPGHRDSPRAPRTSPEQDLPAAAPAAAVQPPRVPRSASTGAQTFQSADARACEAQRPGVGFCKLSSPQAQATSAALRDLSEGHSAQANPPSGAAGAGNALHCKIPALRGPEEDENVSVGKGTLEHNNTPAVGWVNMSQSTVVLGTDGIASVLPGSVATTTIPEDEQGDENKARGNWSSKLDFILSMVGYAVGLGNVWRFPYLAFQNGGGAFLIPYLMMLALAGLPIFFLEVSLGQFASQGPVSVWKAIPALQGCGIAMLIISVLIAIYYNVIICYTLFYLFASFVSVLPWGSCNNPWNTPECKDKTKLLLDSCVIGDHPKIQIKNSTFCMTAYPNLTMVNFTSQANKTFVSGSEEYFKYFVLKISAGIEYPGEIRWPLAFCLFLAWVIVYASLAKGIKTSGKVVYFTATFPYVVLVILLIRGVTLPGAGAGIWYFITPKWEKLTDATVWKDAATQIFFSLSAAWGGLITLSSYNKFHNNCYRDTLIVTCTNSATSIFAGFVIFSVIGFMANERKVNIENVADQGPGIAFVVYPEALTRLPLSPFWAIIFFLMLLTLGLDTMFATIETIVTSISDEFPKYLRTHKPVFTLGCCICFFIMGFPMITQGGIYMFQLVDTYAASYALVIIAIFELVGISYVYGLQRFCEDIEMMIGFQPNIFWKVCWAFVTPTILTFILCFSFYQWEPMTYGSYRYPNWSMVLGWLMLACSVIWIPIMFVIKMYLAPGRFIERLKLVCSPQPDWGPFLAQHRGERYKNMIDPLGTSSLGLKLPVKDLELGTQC

T2: Myc-tagged LNX1-p70 (mouse) (UniProt O70263)
T2 sequence: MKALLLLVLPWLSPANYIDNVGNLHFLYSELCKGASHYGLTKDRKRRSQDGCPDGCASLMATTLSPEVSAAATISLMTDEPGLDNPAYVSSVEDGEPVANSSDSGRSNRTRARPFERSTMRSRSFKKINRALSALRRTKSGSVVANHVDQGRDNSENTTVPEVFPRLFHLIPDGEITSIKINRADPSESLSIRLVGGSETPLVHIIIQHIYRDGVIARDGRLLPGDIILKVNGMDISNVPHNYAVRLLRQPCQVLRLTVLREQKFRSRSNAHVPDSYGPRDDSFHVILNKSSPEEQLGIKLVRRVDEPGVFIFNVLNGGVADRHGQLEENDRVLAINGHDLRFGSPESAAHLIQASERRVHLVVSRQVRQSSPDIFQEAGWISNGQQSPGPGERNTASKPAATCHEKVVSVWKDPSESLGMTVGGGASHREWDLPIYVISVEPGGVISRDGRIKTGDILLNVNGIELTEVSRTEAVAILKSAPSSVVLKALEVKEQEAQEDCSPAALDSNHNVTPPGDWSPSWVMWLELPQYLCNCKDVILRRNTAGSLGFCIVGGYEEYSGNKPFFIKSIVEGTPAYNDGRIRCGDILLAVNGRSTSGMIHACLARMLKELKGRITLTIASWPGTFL

T3: Myc-tagged LNX2 (mouse) (UniProt Q91XL2)
T3 sequence: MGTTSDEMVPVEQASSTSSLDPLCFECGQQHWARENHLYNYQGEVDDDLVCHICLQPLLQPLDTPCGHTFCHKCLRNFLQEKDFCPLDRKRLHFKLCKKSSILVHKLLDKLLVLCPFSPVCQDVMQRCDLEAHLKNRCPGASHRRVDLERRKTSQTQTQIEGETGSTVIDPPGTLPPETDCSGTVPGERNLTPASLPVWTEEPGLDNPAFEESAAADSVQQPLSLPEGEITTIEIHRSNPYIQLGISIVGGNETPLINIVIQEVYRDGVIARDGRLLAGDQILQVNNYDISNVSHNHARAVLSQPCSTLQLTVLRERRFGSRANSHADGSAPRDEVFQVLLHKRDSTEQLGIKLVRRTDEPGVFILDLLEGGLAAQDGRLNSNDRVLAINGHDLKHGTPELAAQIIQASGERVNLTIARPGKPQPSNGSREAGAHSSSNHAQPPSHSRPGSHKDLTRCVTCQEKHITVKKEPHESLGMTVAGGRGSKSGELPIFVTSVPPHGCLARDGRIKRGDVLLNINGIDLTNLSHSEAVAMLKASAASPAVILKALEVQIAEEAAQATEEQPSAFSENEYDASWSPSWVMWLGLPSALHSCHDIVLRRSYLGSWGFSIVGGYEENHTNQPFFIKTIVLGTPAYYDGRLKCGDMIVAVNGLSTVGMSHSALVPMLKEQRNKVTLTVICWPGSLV

T4: FLAG-tagged LNX1-p80 isoform (UniProt O70263)
T4 sequence: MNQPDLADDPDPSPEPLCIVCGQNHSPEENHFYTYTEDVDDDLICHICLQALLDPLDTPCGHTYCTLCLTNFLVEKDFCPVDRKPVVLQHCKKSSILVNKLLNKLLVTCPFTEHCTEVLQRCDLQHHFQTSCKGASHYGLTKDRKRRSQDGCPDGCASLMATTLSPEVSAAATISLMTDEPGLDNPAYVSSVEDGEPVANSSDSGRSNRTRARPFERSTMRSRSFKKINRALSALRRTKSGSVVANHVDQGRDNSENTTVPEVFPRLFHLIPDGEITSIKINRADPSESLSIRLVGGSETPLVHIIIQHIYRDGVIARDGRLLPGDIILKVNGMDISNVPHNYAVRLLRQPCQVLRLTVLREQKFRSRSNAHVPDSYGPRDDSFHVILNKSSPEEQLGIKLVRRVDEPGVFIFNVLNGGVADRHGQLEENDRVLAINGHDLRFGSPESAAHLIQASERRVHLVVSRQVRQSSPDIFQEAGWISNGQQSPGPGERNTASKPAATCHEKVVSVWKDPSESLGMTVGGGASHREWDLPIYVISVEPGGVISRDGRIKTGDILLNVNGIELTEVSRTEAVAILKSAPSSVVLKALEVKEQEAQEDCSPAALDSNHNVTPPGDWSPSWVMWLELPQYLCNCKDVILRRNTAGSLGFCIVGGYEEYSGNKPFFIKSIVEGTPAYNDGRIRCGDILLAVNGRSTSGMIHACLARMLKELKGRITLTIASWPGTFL

B1: FLAG-tagged LNX1-p80 isoform (enzyme, UniProt O70263 1-728)
chain: T4 sequence
B2: neuronal glycine transporter GlyT2 (protein, UniProt P58295-1 1-799)
chain: T1 sequence
B3: Myc-tagged LNX1-p70 (protein, UniProt O70263-2 1-628)
chain: T2 sequence
B4: Myc-tagged LNX2 (enzyme, UniProt Q91XL2 1-687)
chain: T3 sequence

How the values were obtained:
Experiment in all cases: co-IP; COS7 cells co-transfected with GlyT2 and tagged LNX; lysed in TN buffer (25 mM Tris HCl, 150 mM NaCl, pH 7.4) with 0.25% NP-40; immunoprecipitation with rat anti-GlyT2, anti-c-Myc or anti-FLAG M2 overnight at 4 °C, protein G agarose; Western blot
[1] = biological target: T1, neuronal glycine transporter GlyT2 (rat)
[2] = biological target: T2, Myc-tagged LNX1-p70 (mouse)
Myc-tagged LNX2 (mouse) = biological target: T3, Myc-tagged LNX2 (mouse)
[3] = biological target: T4, FLAG-tagged LNX1-p80 isoform

Binder | binding [1] | binding [2] | binding (Myc-tagged LNX2 (mouse)) | binding [3]
B1 | binds |  |  | 
B2 |  | binds | binds | binds
B3 | binds |  |  | 
B4 | binds |  |  | 
